Reference: the supplement of paper PMC7666118
Some of the results follow.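 How the source made its calls: active = dose-dependent thermal stabilisation significant by F-test of dose-response against flat model at 10% FDR; inactive = not significant.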

Protein sequences, listed by entry. Tags and fused reporters are not part of them. Lines headed by an entry give the natural chain unless they say otherwise; changes in a name come on top.
UniProt Q9NWH9: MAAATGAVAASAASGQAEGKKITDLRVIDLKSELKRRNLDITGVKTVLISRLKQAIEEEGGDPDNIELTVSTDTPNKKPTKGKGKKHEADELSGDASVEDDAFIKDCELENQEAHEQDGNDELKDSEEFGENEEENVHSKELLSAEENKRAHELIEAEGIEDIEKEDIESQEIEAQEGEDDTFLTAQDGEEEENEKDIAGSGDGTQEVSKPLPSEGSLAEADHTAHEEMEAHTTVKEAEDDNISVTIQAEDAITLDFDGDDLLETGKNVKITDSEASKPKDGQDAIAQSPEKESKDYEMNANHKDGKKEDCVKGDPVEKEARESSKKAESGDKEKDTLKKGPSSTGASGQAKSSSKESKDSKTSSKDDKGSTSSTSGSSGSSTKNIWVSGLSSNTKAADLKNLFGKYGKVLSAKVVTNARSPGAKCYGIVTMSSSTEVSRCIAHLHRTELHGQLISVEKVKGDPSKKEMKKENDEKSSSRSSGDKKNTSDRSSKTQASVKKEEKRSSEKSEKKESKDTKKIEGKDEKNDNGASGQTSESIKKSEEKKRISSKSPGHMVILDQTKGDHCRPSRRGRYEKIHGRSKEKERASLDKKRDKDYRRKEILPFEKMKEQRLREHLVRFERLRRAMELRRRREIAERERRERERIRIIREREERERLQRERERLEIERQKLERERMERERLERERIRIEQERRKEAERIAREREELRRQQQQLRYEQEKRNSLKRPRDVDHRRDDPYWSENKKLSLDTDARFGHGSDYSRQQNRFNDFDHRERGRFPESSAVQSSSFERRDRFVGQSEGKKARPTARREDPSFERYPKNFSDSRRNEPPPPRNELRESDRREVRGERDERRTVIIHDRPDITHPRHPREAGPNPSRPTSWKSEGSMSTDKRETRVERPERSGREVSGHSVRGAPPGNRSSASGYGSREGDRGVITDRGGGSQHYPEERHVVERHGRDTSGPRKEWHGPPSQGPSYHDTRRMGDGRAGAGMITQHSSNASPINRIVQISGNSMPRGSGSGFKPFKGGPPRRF

Target: SLTM (UniProt Q9NWH9)
Experiment: dose-dependent thermal stabilisation call (2D-TPP, DLPTP, 10% FDR) (binary (1 = stabilised)); higher = stabilised by the compound
Details: system: Jurkat gel-filtered lysate; concentration range 1-500 µM
Experimental: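 2D thermal proteome profiling in gel-filtered Jurkat E6.1 lysate (2 mg/ml) treated with NaGTP (0, 1, 10, 100, 500 uM) for 10 min at room temperature, then heated 3 min at one of 12 temperatures (42-63.9 C). Soluble protein was quantified by TMT10 MS. The value is the DLPTP call of the paper: dose-dependent thermal stabilisation over all temperatures at 10% FDR (F-test of a dose-response against a flat model); one experiment, one call per tested protein.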

**Q.** Which “dose-dependent thermal stabilisation call” value does the source give for `Nc1nc2c(ncn2[C@@H]2O[C@H](COP(=O)(O)OP(=O)(O)OP(=O)(O)O)[C@@H](O)[C@H]2O)c(=O)[nH]1` here?
**A.** The value was inactive: 0.
